Our source for the NMR binding call values is the supplement of paper PMC8426693.

The list shows a part of the results.

In the first assay the test system is SARS-CoV-2 5_SL7 RNA. The experiment in a line: NMR binding call after quantification (hit when 2 of 3 NMR criteria are met) (binary (1 = binding, 0 = not binding)); higher = binding. Particulars: RNA concentration 10 µM; fragment concentration 200 µM; 293 K.
Take `CC(=O)Nc1ccc(C#N)cc1`: the NMR binding call came out at 0.
For the compound `COC(=O)COc1ccc(C#N)cc1`, the NMR binding call worked out at 0.
In the case of `CNC(=O)CN(C)C1CCCCCC1`, the NMR binding call is 0.
As for `CC1CN(S(=O)(=O)N(C)C(C)C)CCO1` (stereo not drawn), the NMR binding call worked out at 0.
The compound `CS(=O)(=O)NCCc1ccc(F)cc1` had an NMR binding call of 0.
For `Cc1csc(CNC(=O)C2CCC2)n1`, the NMR binding call worked out at 0.
The same measure, in the same setting: the result for `O=C(CN1CCCC1)Nc1cccc(Cl)c1` reads 0; that for `CC(CS(N)(=O)=O)c1ccccc1` (stereo not drawn), 0; that for `Cl.O=C(O)CN1CCC(c2ccccc2)CC1`, 0.
`CC(C)NC(=O)c1cc[nH]n1` came in with an NMR binding call of 0.
The compound `CC(N)C(=O)Nc1cc(C(F)(F)F)n[nH]1.Cl` (stereo not drawn) came in with an NMR binding call of 0.
Regarding `O=C(Cc1ccc(F)cc1)NC1CCCCC1`, the NMR binding call is 0.
Turning to `CC1CCN(Cc2c[nH]c3ccccc23)CC1`, the NMR binding call is 0.

For another assay, the system named is SARS-CoV-2 5_SL8 RNA. The description is as above. The note with it: RNA concentration 10 µM; fragment concentration 200 µM; 293 K.
`COCC(=O)Nc1ccc(O)cc1`: the NMR binding call was determined as 0.
In turn, `Cc1nc2ccccc2n1CCC(N)=O` had an NMR binding call of 0.
For `Cc1nc(CC(=O)N2CCOCC2)cs1`, the NMR binding call is 0.
With `CCc1ccc(OCC(=O)N2CCCCC2)cc1`, the NMR binding call was 0.
In turn, `CCOC(=O)C1CCN(c2cnccn2)CC1` returned an NMR binding call of 0.
In turn, `CC1CCN(C(=O)CCCc2ccccc2)CC1` registered an NMR binding call of 0.
`CCOc1ncccc1C(N)=O` returned an NMR binding call of 0.
For the compound `CNC(=O)Nc1nc2ccc(OC)cc2s1`, the NMR binding call was determined as 0.
The compound `CCn1c(NC(C)=O)nc2ccccc21` returned an NMR binding call of 0.
With `COCc1cc(C(N)=O)no1`, the NMR binding call amounted to 0.
With `COc1ccccc1NC(=O)c1ccc(C)s1`, the NMR binding call amounted to 0.
Compound `CNCCC1CCCCC1` came in with an NMR binding call of 0.
Take `OC1CCN(Cc2ccsc2)CC1`: the NMR binding call came to 0.
`NC(=S)Nc1ccccc1OC(F)(F)F`: the NMR binding call was found to be 0.
Turning to `CC(=O)N1Cc2ccc(N)cc2C1`, the NMR binding call was determined as 0.
As to `CN1CCN(C(=O)Nc2ccccc2)CC1`, the NMR binding call is 0.
On to `CCNC(=O)N1CCN(C(C)=O)CC1`, for which the NMR binding call is 0.
Compound `Cc1ncsc1C(=O)N1CCNC(=O)C1` had an NMR binding call of 0.
`COCC(=O)Nc1nc(-c2ccccc2)cs1` showed an NMR binding call of 0.
As to `O=C(NCc1ccccc1)c1cccc(F)c1`, the NMR binding call is 0.
With `C1CN(Cc2nc(C3CC3)no2)CCO1`, the NMR binding call is 0.
`CCN(CC)S(=O)(=O)c1ccc(C)cc1` came in with an NMR binding call of 0.
The compound `CC1CCC(NC2CCC(O)CC2)CC1` (stereo not drawn) had an NMR binding call of 0.
Regarding `CNC(=O)CNc1ncnc2sccc12`, the NMR binding call came to 0.
`Cc1cnc(NC(=O)CCC2CCCC2)s1`: the NMR binding call amounted to 0.
`CC1(C)CN(c2ncccc2F)CC1O` (stereo not drawn) showed an NMR binding call of 0.
For the compound `CSc1nsc(NC(C)=O)n1`, the NMR binding call was 0.
Still for that read-out and setting: the result for `CC(=O)Nc1ccc(C#N)cc1` reads 0; that for `COC(=O)COc1ccc(C#N)cc1`, 0.
In turn, `CNC(=O)CN(C)C1CCCCCC1` showed an NMR binding call of 0.
For the compound `CC1CN(S(=O)(=O)N(C)C(C)C)CCO1` (stereo not drawn), the NMR binding call was found to be 0.
`CS(=O)(=O)NCCc1ccc(F)cc1` returned an NMR binding call of 0.
The same measure, in the same setting: the figure for `Cc1csc(CNC(=O)C2CCC2)n1` is 0; for `O=C(CN1CCCC1)Nc1cccc(Cl)c1` it is 0; for `CC(CS(N)(=O)=O)c1ccccc1` (stereo not drawn) it is 0.
The same measure, in the same setting: the result for `Cl.O=C(O)CN1CCC(c2ccccc2)CC1` reads 0; that for `CC(C)NC(=O)c1cc[nH]n1`, 0.
The compound `CC(N)C(=O)Nc1cc(C(F)(F)F)n[nH]1.Cl` (stereo not drawn) returned an NMR binding call of 0.
For `O=C(Cc1ccc(F)cc1)NC1CCCCC1`, the NMR binding call was 0.
In turn, `CC1CCN(Cc2c[nH]c3ccccc23)CC1` showed an NMR binding call of 0.

The next assay relates to SARS-CoV-2 attenuator hairpin (att HP) RNA. The assay is described as above. The note with it: RNA concentration 10 µM; fragment concentration 200 µM; 293 K.
Take `COCC(=O)Nc1ccc(O)cc1`: the NMR binding call is 0.
The compound `Cc1nc2ccccc2n1CCC(N)=O` displayed an NMR binding call of 0.
Compound `Cc1nc(CC(=O)N2CCOCC2)cs1` yielded an NMR binding call of 0.
`CCc1ccc(OCC(=O)N2CCCCC2)cc1`: the NMR binding call was determined as 0.
The same measure, in the same setting: the result for `CCOC(=O)C1CCN(c2cnccn2)CC1` reads 0; that for `CC1CCN(C(=O)CCCc2ccccc2)CC1`, 0; that for `CCOc1ncccc1C(N)=O`, 0.
In turn, `CNC(=O)Nc1nc2ccc(OC)cc2s1` displayed an NMR binding call of 0.
The compound `CCn1c(NC(C)=O)nc2ccccc21` had an NMR binding call of 0.
`COCc1cc(C(N)=O)no1` displayed an NMR binding call of 0.
As for `COc1ccccc1NC(=O)c1ccc(C)s1`, the NMR binding call was determined as 0.
On the same count and under the same terms, the figure for `CNCCC1CCCCC1` is 0.
Compound `OC1CCN(Cc2ccsc2)CC1` registered an NMR binding call of 0.
Consider `NC(=S)Nc1ccccc1OC(F)(F)F`, for which the NMR binding call was 0.
`CC(=O)N1Cc2ccc(N)cc2C1` yielded an NMR binding call of 0.
In the case of `CN1CCN(C(=O)Nc2ccccc2)CC1`, the NMR binding call stood at 0.
`CCNC(=O)N1CCN(C(C)=O)CC1`: the NMR binding call came to 0.
Compound `Cc1ncsc1C(=O)N1CCNC(=O)C1` displayed an NMR binding call of 0.
On to `COCC(=O)Nc1nc(-c2ccccc2)cs1`, for which the NMR binding call came out at 0.
Still for that read-out and setting: the result for `O=C(NCc1ccccc1)c1cccc(F)c1` reads 0.
Same read-out and setting: the figure for `C1CN(Cc2nc(C3CC3)no2)CCO1` is 0.
The compound `CCN(CC)S(=O)(=O)c1ccc(C)cc1` registered an NMR binding call of 0.
`CC1CCC(NC2CCC(O)CC2)CC1` (stereo not drawn): the NMR binding call was 0.
`CNC(=O)CNc1ncnc2sccc12` yielded an NMR binding call of 0.
In the case of `Cc1cnc(NC(=O)CCC2CCCC2)s1`, the NMR binding call came out at 0.
Same read-out and setting: the figure for `CC1(C)CN(c2ncccc2F)CC1O` (stereo not drawn) is 0; for `CSc1nsc(NC(C)=O)n1` it is 0.
Still for that read-out and setting: the figure for `CC(=O)Nc1ccc(C#N)cc1` is 0; for `COC(=O)COc1ccc(C#N)cc1` it is 0; for `CNC(=O)CN(C)C1CCCCCC1` it is 0.
Regarding `CC1CN(S(=O)(=O)N(C)C(C)C)CCO1` (stereo not drawn), the NMR binding call was 0.
`CS(=O)(=O)NCCc1ccc(F)cc1` displayed an NMR binding call of 0.
The compound `Cc1csc(CNC(=O)C2CCC2)n1` came in with an NMR binding call of 0.
Same read-out and setting: the result for `O=C(CN1CCCC1)Nc1cccc(Cl)c1` reads 0; that for `CC(CS(N)(=O)=O)c1ccccc1` (stereo not drawn), 0; that for `Cl.O=C(O)CN1CCC(c2ccccc2)CC1`, 0.
Compound `CC(C)NC(=O)c1cc[nH]n1` yielded an NMR binding call of 0.
The same measure, in the same setting: the result for `CC(N)C(=O)Nc1cc(C(F)(F)F)n[nH]1.Cl` (stereo not drawn) reads 0; that for `O=C(Cc1ccc(F)cc1)NC1CCCCC1`, 0.
The same measure, in the same setting: the result for `CC1CCN(Cc2c[nH]c3ccccc23)CC1` reads 0.
